Assay results from the supplement of paper PMC10849652.
The list shows a part of the results.

Protein sequences, listed by entry. Tags and fused reporters are not part of them. Lines headed by an entry give the natural chain unless they say otherwise; changes in a name come on top.
UniProt P00374: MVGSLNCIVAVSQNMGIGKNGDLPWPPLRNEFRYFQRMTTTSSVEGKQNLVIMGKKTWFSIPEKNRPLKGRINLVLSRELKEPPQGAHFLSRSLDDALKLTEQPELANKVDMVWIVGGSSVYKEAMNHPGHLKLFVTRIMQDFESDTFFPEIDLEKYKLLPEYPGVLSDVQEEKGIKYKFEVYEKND
UniProt Q9NYC9: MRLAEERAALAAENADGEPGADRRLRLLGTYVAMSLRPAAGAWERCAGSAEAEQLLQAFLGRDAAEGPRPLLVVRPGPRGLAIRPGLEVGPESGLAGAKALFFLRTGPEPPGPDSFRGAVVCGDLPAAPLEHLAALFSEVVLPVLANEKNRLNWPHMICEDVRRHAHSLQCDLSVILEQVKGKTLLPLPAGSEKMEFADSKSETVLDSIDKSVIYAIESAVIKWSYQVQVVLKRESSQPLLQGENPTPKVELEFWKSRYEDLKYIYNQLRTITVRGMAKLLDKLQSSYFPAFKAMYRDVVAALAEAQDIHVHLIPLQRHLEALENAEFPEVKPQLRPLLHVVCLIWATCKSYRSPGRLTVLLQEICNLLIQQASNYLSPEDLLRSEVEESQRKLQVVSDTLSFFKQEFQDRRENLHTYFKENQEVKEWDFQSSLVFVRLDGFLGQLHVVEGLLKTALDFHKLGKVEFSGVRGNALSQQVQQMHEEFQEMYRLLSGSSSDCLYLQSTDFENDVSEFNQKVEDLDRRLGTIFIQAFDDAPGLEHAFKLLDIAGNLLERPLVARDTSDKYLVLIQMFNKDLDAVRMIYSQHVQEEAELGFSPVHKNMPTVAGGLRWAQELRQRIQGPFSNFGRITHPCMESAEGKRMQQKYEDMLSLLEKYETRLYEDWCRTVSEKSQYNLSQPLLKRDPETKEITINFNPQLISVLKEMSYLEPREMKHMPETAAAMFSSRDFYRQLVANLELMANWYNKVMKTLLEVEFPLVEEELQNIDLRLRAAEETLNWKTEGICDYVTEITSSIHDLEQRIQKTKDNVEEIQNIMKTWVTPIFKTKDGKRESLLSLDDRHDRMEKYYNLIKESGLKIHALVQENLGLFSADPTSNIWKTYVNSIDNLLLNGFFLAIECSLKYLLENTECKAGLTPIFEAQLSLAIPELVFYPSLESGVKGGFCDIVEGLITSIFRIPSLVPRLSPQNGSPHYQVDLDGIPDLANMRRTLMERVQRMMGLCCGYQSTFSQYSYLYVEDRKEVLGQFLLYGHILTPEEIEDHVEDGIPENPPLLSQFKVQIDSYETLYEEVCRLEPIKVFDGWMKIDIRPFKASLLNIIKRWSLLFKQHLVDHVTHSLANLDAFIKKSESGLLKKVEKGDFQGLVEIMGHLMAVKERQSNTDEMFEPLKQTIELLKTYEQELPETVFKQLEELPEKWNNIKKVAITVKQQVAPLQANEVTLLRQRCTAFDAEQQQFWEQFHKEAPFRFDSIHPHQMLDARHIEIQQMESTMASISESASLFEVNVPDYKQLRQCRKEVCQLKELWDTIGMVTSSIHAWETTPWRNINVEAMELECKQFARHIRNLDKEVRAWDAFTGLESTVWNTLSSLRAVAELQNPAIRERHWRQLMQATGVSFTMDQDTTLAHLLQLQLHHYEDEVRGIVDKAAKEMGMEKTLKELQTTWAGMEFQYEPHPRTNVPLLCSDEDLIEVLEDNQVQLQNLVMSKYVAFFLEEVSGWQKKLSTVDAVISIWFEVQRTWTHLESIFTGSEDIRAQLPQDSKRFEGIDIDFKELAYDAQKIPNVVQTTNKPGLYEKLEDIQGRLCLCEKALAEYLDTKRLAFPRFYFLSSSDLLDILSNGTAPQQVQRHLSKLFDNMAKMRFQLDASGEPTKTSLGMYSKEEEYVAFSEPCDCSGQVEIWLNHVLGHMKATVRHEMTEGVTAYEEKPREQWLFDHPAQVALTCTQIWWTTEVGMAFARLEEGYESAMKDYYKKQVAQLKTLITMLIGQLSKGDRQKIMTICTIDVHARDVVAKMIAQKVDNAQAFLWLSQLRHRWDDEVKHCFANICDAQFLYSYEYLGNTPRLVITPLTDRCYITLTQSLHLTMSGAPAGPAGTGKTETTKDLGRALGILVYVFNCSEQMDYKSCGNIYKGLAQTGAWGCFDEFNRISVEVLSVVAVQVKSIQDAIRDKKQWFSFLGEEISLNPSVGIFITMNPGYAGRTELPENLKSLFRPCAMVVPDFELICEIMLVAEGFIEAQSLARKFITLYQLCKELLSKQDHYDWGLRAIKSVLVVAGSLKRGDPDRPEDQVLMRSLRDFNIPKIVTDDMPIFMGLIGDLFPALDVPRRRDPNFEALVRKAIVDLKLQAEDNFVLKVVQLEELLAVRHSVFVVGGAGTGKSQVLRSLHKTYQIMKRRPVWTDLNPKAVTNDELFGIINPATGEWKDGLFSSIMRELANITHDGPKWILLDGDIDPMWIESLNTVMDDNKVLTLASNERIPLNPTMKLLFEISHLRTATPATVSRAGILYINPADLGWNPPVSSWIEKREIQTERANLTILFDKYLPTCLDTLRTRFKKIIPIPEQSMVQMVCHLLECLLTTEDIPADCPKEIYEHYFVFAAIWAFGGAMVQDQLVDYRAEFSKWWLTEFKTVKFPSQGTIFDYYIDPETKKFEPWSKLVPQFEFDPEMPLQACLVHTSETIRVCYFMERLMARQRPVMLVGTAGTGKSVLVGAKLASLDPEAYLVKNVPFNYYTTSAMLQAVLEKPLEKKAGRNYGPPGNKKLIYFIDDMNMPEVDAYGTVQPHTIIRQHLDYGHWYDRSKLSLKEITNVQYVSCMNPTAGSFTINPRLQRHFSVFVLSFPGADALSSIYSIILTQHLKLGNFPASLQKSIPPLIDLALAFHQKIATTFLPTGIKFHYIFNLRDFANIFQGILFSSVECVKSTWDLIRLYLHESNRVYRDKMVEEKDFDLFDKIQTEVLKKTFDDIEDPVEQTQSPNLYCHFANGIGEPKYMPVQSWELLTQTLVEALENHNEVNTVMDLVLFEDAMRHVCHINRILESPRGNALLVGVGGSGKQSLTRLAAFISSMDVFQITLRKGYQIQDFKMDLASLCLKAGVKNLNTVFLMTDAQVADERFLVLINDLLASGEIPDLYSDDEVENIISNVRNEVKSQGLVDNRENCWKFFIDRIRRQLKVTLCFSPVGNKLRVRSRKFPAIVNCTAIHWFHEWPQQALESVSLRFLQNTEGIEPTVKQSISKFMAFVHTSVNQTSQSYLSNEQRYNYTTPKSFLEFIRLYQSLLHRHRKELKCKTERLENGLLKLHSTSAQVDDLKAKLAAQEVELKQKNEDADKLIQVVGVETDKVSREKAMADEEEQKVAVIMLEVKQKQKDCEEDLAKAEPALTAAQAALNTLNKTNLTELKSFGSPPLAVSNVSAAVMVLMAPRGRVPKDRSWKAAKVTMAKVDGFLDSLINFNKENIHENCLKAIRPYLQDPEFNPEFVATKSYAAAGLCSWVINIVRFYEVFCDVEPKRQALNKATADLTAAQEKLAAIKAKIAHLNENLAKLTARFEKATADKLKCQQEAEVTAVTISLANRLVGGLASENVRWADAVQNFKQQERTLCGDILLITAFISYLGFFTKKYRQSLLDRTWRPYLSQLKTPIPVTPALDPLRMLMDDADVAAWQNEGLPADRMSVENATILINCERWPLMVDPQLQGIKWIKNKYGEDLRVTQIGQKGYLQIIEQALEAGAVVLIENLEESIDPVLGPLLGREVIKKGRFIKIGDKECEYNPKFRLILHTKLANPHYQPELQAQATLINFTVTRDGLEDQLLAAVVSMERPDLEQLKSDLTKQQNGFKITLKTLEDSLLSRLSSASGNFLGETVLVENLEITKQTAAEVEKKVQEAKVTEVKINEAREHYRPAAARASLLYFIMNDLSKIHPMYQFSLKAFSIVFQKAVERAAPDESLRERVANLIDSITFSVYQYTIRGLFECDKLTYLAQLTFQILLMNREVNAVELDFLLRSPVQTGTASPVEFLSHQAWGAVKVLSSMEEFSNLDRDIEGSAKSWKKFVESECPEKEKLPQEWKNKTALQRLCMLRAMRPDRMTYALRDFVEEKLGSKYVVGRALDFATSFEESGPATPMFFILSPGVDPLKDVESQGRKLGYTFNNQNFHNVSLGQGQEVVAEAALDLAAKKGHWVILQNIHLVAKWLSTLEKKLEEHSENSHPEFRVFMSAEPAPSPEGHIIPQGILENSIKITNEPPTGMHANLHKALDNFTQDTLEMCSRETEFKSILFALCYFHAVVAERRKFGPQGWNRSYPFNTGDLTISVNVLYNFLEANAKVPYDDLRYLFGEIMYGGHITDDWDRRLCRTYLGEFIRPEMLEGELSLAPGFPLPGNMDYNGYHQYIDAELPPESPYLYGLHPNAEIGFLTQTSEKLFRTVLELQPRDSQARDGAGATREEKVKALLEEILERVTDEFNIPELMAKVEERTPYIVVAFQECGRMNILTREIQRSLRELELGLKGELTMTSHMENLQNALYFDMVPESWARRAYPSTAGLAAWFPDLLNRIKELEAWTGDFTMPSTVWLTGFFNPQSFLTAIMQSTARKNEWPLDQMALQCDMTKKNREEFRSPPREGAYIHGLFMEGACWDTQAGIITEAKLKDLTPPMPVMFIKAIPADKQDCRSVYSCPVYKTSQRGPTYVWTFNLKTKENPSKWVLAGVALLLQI
UniProt Q5VZ89: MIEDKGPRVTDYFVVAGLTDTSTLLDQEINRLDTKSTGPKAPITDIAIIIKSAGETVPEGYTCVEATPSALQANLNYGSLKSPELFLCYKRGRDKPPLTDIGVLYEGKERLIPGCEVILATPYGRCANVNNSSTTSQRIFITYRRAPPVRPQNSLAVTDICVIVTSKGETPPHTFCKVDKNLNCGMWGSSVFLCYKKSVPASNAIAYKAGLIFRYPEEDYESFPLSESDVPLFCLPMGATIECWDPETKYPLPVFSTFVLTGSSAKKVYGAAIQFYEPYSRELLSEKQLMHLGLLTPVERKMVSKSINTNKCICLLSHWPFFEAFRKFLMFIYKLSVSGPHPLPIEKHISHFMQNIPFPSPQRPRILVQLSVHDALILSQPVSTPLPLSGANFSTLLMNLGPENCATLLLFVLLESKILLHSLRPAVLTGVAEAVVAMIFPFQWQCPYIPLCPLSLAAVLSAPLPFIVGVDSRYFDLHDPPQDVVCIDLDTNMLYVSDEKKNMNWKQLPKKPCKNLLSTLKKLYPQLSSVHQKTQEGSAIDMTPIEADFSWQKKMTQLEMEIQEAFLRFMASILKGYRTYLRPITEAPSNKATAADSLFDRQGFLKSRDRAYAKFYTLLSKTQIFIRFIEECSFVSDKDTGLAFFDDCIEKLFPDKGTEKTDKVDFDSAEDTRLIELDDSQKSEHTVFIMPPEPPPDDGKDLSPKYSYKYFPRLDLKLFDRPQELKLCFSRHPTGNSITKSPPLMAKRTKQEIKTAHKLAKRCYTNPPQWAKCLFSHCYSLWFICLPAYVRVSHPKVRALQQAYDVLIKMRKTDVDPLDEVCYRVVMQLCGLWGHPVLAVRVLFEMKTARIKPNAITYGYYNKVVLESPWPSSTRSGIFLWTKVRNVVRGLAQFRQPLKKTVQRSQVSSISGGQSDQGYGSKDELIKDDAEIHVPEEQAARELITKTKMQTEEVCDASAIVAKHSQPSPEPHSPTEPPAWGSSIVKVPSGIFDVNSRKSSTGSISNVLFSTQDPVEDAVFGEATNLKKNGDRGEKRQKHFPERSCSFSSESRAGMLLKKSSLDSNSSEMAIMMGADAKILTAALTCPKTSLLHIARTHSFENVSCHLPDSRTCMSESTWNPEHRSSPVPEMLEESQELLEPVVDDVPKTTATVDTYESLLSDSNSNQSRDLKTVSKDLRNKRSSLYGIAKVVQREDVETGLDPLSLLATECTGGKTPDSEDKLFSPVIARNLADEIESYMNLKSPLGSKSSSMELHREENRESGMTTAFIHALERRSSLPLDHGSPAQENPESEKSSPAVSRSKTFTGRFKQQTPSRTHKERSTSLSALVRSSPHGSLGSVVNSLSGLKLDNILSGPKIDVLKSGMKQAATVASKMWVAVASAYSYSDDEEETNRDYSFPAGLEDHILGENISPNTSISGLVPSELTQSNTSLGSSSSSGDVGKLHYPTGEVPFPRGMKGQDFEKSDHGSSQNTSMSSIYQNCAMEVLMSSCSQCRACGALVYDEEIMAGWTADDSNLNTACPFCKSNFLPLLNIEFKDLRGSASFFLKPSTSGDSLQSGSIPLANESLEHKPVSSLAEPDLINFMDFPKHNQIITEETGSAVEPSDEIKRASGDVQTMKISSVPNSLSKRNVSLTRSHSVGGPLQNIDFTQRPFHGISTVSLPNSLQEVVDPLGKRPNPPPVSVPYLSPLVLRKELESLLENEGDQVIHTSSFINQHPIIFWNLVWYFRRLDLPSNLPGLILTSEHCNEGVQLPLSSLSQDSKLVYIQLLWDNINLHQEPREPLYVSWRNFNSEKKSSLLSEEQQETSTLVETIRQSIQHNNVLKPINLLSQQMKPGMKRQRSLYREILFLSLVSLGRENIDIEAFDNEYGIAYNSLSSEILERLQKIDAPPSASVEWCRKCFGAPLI

Legend:
Assay in all cases: log2 fold change, soluble protein after heating vs DMSO (PISA); higher = thermal stabilisation; K562 cells, 10 uM, 30 min; active = over 0.2 and 3.5 SD of the protein, either way, in both replicates (recomputed)
[1] = compound: NC(=O)Nc1cc(-c2cccc(F)c2)sc1C(=O)N[C@H]1CCCNC1
In short: (§1)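 Quantification of soluble protein used TMTpro 16plex LC-MS/MS, with channel sums equalised. Samples were the supernatant after 21,000xg for 90 min of pooled aliquots from K562 cells (2×10^6 cells/mL) treated with 10 μM compound for 30 min, heated for 3 min over 48°C-58°C, and extracted in PBS with 0.5% NP-40 at 4°C. Values, from duplicates, describe thermal stability against control samples on a log2 fold-change scale.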

[2] = compound: NC(=O)c1cnc(N[C@@H]2CCCC[C@@H]2N)nc1Nc1cccc(-n2nccn2)c1
In short: as §1

[3] = compound: NC1(c2ccc(-c3nc4ccn5c(=O)[nH]nc5c4cc3-c3ccccc3)cc2)CCC1
In short: as §1

[4] = compound: NCC(=O)Nc1ccc(-n2nc(C(F)(F)F)cc2-c2ccc3c(ccc4ccccc43)c2)cc1
In short: as §1

[5] = compound: Nc1ccccc1NC(=O)c1ccc(CNC(=O)OCc2cccnc2)cc1 [entinostat]
In short: as §1

[6] = compound: O=C(CCCCCCC(=O)Nc1ccccc1)NO [vorinostat]
In short: as §1

[7] = compound: O=C(CCCCCCNC(=O)c1cnc(N(c2ccccc2)c2ccccc2Cl)nc1)NO [citarinostat]
In short: as §1

[8] = compound: O=C(O)c1ccc2c(c1)nc(Nc1cccc(Cl)c1)c1ccncc12 [silmitasertib]
In short: as §1

[9] = compound: O=C1NC(=O)C(c2cnc3ccccn23)=C1c1cn2c3c(cc(F)cc13)CN(C(=O)N1CCCCC1)CC2
In short: as §1

[10] = compound: c1cc(OCCN2CCCCC2)cc(-c2n[nH]c3ccc(-c4nnc[nH]4)cc23)c1
In short: as §1

Target | log2 fold change [1] | log2 fold change [2] | log2 fold change [3] | log2 fold change [4] | log2 fold change [5] | log2 fold change [6] | log2 fold change [7] | log2 fold change [8] | log2 fold change [9] | log2 fold change [10]
DLGAP5 (UniProt Q15398) | inactive: -0.034 | inactive: -0.128 | inactive: -0.095 | inactive: -0.024 | inactive: 0.03 | inactive: 0.049 | inactive: 0.04 | inactive: 0.11 | inactive: -0.025 | inactive: -0.019
DEGS1 (UniProt O15121) | inactive: -0.101 | inactive: 0.249 | inactive: 0.086 | inactive: -0.169 | inactive: -0.006 | inactive: 0.077 | inactive: 0.109 | inactive: -0.053 | inactive: -0.003 | inactive: -0.063
DHX57 (UniProt Q6P158) | inactive: 0.029 | inactive: 0.055 | inactive: 0.131 | inactive: 0.024 | inactive: 0 | inactive: -0.025 | inactive: 0 | inactive: 0.068 | inactive: 0.062 | inactive: -0.114
DHRS7 (UniProt Q9Y394) | inactive: 0.057 | inactive: 0.033 | inactive: 0.017 | inactive: 0.035 | inactive: 0.032 | inactive: -0.063 | inactive: 0.015 | inactive: -0.028 | inactive: -0.111 | inactive: -0.036
DKC1 (UniProt O60832) | inactive: 0.039 | inactive: 0.049 | inactive: 0.195 | inactive: 0.027 | inactive: -0.061 | inactive: -0.02 | inactive: -0.072 | inactive: 0.073 | inactive: 0.154 | inactive: -0.15
DHRS11 (UniProt Q6UWP2) | inactive: -0.014 | inactive: -0.036 | inactive: -0.036 | inactive: 0.014 | inactive: -0.053 | inactive: 0.053 | inactive: 0.016 | inactive: -0.016 | inactive: -0.079 | inactive: 0.045
DHFR (UniProt P00374) | inactive: 0.095 | inactive: 0.209 | active: 0.849 | inactive: -0.139 | inactive: -0.02 | inactive: 0.082 | inactive: 0.042 | active: 0.57 | inactive: 0.072 | inactive: -0.048
DLAT (UniProt P10515) | inactive: -0.044 | inactive: 0.049 | inactive: -0.032 | inactive: 0.143 | inactive: -0.005 | inactive: -0.055 | inactive: -0.055 | inactive: 0.053 | inactive: 0.043 | inactive: -0.198
DERA (UniProt Q9Y315) | inactive: -0.014 | inactive: 0.032 | inactive: 0.05 | inactive: 0.004 | inactive: -0.083 | inactive: -0.012 | inactive: 0.039 | inactive: -0.072 | inactive: -0.026 | inactive: -0.043
DHX38 (UniProt Q92620) | inactive: 0.053 | inactive: 0.042 | inactive: -0.066 | inactive: 0.006 | inactive: -0.01 | inactive: -0.02 | inactive: 0.009 | inactive: 0.024 | inactive: -0.003 | inactive: -0.01
DNAJA2 (UniProt O60884) | inactive: -0.01 | inactive: -0.022 | inactive: -0.056 | inactive: 0.024 | inactive: 0.02 | inactive: 0.041 | inactive: 0.037 | inactive: -0.013 | inactive: -0.018 | inactive: 0.004
DGCR2 (UniProt P98153) | inactive: -0.039 | inactive: -0.019 | inactive: -0.167 | inactive: -0.031 | inactive: -0.051 | inactive: 0.076 | inactive: -0.04 | inactive: 0.027 | inactive: 0.012 | inactive: -0.051
DHODH (UniProt Q02127) | inactive: 0.012 | inactive: -0.004 | inactive: -0.01 | inactive: 0.017 | inactive: -0.006 | inactive: -0.01 | inactive: 0.001 | inactive: 0.016 | inactive: -0.036 | inactive: -0.015
DMAC1 (UniProt Q96GE9) | inactive: 0.136 | inactive: 0.031 | inactive: 0.015 | inactive: -0.07 | inactive: -0.004 | inactive: 0.019 | inactive: -0.003 | inactive: -0.185 | inactive: -0.427 | inactive: 0.113
DDA1 (UniProt Q9BW61) | inactive: -0.031 | inactive: -0.051 | inactive: -0.049 | inactive: 0.013 | inactive: -0.002 | inactive: -0.031 | inactive: 0.022 | inactive: -0.011 | inactive: -0.076 | inactive: -0.037
DDX1 (UniProt Q92499) | inactive: 0.079 | inactive: -0.021 | inactive: -0.024 | inactive: 0.032 | inactive: 0.015 | inactive: 0.012 | inactive: 0.015 | inactive: 0.036 | inactive: 0.211 | inactive: -0.088
DGKZ (UniProt Q13574) | inactive: -0.019 | inactive: -0.06 | inactive: 0.034 | inactive: -0.125 | inactive: 0.079 | inactive: -0.053 | inactive: -0.088 | inactive: 0.027 | inactive: -0.024 | inactive: -0.068
DMAC2 isoform 4 (UniProt Q9NW81) | inactive: 0.023 | inactive: 0.03 | inactive: -0.076 | inactive: 0.004 | inactive: -0.073 | inactive: 0.16 | inactive: 0.085 | inactive: -0.013 | inactive: -0.036 | inactive: -0.076
DIABLO (UniProt Q9NR28) | inactive: 0.004 | inactive: 0.03 | inactive: -0.025 | inactive: 0.06 | inactive: 0.015 | inactive: 0.037 | inactive: 0.044 | inactive: -0.019 | inactive: -0.01 | inactive: -0.023
DDX4 (UniProt Q9NQI0) | active: -1.13 | inactive: 0.01 | inactive: 0.297 | inactive: -0.35 | inactive: -0.405 | inactive: -0.253 | inactive: -0.146 | inactive: 0.171 | inactive: -0.273 | inactive: -0.194
DFFB (UniProt O76075) | inactive: 0.028 | inactive: -0.064 | inactive: -0.037 | inactive: 0.069 | inactive: 0 | inactive: 0.016 | inactive: 0.057 | inactive: 0.087 | inactive: 0.048 | inactive: -0.08
DNAH9 (UniProt Q9NYC9) | inactive: 0.016 | inactive: 0.01 | inactive: 0.003 | inactive: -0.007 | inactive: -0.042 | inactive: 0.011 | inactive: 0.118 | inactive: -0.025 | inactive: -0.021 | inactive: -0.04
DDX6 (UniProt P26196) | inactive: -0.155 | inactive: -0.019 | inactive: -0.012 | inactive: -0.127 | inactive: -0.044 | inactive: 0.022 | inactive: 0.016 | inactive: -0.02 | inactive: -0.018 | inactive: -0.056
DHCR24 (UniProt Q15392) | inactive: -0.022 | inactive: -0.037 | inactive: 0.048 | inactive: -0.024 | inactive: -0.082 | inactive: -0.012 | inactive: 0 | inactive: -0.018 | inactive: 0.041 | active: 1.08
DENND4C isoform 7 (UniProt Q5VZ89) | inactive: -0.001 | inactive: -0.106 | inactive: -0.17 | inactive: -0.009 | inactive: 0.051 | inactive: -0.098 | inactive: 0.176 | inactive: 0.067 | inactive: 0.051 | inactive: -0.057
DIP2B (UniProt Q9P265) | inactive: -0.024 | inactive: -0.003 | inactive: -0.043 | inactive: 0.015 | inactive: 0.013 | inactive: -0.012 | inactive: 0.003 | inactive: -0.046 | inactive: -0.016 | inactive: -0.029
DDX23 (UniProt Q9BUQ8) | inactive: 0.029 | inactive: 0.085 | inactive: 0.186 | inactive: 0.083 | inactive: -0.07 | inactive: -0.14 | inactive: -0.148 | inactive: 0.128 | inactive: 0.193 | inactive: -0.194
DHRS4 (UniProt Q9BTZ2) | inactive: 0.019 | inactive: -0.011 | inactive: -0.031 | inactive: 0.022 | inactive: -0.004 | inactive: 0.004 | inactive: 0.048 | inactive: 0.001 | inactive: 0 | inactive: 0.047
DHPS (UniProt P49366) | inactive: 0.01 | inactive: 0.051 | inactive: 0.014 | inactive: 0.053 | inactive: -0.045 | inactive: 0.04 | inactive: 0.022 | inactive: -0.013 | inactive: 0.08 | inactive: -0.026
DFFA (UniProt O00273) | inactive: 0.024 | inactive: -0.034 | inactive: 0.03 | inactive: 0.024 | inactive: 0.024 | inactive: -0.008 | inactive: -0.025 | inactive: -0.014 | inactive: -0.023 | inactive: 0.005

Record cards (already shown). Order of values: log2 fold change [1]	log2 fold change [2]	log2 fold change [3]	log2 fold change [4]	log2 fold change [5]	log2 fold change [6]	log2 fold change [7]	log2 fold change [8]	log2 fold change [9]	log2 fold change [10]
DMAC2 isoform 4 (UniProt Q9NW81) as listed: inactive: 0.023	inactive: 0.03	inactive: -0.076	inactive: 0.004	inactive: -0.073	inactive: 0.16	inactive: 0.085	inactive: -0.013	inactive: -0.036	inactive: -0.076
DGCR2 (UniProt P98153) as listed: inactive: -0.039	inactive: -0.019	inactive: -0.167	inactive: -0.031	inactive: -0.051	inactive: 0.076	inactive: -0.04	inactive: 0.027	inactive: 0.012	inactive: -0.051
